Results published in article PMC4721963.
No constants are given. Whether binding was seen depends on the method and setting. In cells and extracts the contact can be indirect. Some results given as binding are weak or reduced against the parent protein; the word gives no strength.

By UniProt entry, the sequences of proteins in these tests, tags left out.
UniProt Q13619: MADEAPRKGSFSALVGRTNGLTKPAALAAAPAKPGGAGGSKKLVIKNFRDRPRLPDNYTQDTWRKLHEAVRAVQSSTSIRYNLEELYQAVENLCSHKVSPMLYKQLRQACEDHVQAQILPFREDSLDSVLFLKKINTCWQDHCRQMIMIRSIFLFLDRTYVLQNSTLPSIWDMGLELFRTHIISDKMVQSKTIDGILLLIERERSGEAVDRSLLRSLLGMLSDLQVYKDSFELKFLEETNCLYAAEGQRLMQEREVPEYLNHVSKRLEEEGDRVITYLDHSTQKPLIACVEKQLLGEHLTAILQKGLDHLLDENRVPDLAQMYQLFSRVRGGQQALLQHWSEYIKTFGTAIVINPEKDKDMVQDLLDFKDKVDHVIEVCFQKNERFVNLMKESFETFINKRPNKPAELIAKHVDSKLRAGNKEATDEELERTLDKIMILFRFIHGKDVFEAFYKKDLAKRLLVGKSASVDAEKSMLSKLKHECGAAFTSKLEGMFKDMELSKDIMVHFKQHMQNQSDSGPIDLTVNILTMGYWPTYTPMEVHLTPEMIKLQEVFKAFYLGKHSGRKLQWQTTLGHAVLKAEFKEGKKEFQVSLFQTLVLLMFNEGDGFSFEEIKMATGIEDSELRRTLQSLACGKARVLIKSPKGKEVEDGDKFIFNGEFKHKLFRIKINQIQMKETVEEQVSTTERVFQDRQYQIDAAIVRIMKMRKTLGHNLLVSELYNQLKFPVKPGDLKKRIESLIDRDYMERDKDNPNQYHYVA
UniProt P38936: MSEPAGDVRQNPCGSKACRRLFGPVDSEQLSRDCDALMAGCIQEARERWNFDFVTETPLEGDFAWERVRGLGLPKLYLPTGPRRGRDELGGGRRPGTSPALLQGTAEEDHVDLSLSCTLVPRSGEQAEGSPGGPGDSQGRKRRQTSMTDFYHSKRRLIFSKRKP
UniProt P46527: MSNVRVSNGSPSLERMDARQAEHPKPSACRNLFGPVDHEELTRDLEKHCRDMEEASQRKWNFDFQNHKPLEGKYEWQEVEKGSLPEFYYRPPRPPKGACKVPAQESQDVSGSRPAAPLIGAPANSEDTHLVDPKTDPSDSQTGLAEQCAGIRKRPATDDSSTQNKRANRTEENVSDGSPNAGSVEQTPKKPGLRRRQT

Biological target: Myc-tagged Cul4a (UniProt Q13619)
Assay: co-IP; 293T cells transiently co-transfected with Myc-tagged Cul4a and Cdkn1a^cip1 (or p27^kip1); lysed 48 h after transfection; lysates immunoprecipitated with anti-Myc antibody, Western blot

Substance | binding
Cdkn1a^cip1 (cyclin-dependent kinase inhibitor 1A) (from UniProt P38936 1-164) | binds
p27^kip1 (from UniProt P46527 1-198) | no binding
